Results taken from the supplement of paper PMC6411743.
± gives the standard deviation of the averaged measurements. The list shows a part of the results, in another mix than the full data. Most entries show no effect beyond the scatter of the controls.

The chains behind the UniProt entries cited, without tags or fusion partners. Where a name states a change or a piece, a line headed by the entry shows the natural chain unless it says otherwise.
UniProt Q06323: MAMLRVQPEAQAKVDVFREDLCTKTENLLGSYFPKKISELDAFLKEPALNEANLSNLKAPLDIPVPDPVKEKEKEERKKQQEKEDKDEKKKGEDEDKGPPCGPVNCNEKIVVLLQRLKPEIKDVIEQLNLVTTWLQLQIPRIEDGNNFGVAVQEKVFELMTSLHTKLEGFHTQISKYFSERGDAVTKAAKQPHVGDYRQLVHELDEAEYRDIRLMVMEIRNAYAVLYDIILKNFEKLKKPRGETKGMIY
UniProt Q9Y2M0: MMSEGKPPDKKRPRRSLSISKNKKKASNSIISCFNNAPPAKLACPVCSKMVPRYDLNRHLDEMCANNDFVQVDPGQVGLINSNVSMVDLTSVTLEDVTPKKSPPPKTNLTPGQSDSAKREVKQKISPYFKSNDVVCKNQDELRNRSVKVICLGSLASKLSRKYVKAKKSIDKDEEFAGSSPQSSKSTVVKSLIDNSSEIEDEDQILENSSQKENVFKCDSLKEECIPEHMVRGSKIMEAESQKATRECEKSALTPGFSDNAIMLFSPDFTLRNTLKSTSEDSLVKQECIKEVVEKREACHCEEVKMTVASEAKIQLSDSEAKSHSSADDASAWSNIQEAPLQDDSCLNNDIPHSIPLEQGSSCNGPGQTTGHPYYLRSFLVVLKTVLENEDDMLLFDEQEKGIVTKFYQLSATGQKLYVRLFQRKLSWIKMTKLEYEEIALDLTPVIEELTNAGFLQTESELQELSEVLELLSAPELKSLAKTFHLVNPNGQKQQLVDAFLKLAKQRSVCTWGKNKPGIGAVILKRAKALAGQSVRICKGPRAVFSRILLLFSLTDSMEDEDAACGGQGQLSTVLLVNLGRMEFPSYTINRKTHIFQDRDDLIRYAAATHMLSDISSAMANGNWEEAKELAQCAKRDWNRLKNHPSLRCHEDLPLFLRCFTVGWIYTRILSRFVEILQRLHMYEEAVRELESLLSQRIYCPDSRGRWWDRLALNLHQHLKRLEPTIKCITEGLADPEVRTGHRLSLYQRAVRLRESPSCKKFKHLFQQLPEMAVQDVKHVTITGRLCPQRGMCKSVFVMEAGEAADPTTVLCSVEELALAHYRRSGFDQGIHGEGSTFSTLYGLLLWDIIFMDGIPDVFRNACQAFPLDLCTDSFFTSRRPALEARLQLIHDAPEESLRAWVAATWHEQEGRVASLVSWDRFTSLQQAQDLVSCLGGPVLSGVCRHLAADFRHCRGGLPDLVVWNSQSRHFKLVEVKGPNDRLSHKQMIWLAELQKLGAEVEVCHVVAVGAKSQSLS
UniProt Q9UJV9: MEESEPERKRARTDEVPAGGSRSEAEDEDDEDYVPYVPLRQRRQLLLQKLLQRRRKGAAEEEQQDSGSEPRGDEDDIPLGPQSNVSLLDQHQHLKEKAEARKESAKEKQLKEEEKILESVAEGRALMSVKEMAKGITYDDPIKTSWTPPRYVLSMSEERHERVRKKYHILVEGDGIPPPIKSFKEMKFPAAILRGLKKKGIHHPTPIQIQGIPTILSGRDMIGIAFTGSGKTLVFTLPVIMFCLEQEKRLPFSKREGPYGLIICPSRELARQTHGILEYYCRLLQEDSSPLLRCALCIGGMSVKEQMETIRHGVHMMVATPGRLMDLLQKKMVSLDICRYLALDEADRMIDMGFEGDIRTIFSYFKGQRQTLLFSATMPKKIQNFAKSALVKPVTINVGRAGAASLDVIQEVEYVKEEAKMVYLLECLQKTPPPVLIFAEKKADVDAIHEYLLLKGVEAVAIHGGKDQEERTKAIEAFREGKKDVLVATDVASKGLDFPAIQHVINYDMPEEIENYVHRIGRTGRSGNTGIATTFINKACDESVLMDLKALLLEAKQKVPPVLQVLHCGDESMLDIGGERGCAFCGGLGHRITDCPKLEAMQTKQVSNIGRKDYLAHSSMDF
UniProt O75427: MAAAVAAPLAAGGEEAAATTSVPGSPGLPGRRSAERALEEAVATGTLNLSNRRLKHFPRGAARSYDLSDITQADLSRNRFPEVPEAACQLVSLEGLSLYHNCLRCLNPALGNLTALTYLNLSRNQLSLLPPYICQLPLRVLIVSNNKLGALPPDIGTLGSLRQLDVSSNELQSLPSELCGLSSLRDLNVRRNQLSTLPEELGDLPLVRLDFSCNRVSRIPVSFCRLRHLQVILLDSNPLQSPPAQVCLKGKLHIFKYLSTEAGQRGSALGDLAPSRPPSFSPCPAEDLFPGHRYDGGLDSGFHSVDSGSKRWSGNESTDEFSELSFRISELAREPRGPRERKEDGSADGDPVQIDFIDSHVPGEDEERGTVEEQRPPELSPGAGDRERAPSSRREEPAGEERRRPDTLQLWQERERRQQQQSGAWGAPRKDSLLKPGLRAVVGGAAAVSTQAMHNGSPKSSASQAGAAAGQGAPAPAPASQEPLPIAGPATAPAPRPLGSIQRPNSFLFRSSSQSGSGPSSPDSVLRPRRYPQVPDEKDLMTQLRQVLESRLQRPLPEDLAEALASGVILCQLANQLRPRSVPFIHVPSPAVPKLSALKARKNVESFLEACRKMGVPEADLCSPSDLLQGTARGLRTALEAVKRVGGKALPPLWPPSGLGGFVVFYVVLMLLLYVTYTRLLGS
UniProt Q8N6H7: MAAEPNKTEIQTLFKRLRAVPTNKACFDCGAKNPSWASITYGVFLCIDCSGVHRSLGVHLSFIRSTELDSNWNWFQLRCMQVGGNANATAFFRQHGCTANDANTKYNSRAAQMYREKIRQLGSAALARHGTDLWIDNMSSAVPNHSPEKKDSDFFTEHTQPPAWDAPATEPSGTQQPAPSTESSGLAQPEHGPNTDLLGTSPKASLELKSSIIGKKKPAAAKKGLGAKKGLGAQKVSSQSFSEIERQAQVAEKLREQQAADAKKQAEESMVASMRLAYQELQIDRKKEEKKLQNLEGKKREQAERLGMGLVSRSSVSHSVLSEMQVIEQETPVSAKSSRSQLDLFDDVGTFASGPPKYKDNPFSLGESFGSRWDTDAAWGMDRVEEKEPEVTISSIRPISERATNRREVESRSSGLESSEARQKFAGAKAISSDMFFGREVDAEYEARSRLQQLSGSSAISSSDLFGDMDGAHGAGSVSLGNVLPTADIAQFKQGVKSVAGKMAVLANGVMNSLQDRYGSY
UniProt Q5BKY9: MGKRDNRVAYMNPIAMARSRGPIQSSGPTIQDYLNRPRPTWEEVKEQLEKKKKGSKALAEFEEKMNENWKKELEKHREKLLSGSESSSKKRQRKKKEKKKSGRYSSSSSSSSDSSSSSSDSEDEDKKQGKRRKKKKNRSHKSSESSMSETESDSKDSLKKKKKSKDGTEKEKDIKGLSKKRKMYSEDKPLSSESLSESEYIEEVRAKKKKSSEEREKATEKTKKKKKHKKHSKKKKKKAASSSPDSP
UniProt Q9Y606: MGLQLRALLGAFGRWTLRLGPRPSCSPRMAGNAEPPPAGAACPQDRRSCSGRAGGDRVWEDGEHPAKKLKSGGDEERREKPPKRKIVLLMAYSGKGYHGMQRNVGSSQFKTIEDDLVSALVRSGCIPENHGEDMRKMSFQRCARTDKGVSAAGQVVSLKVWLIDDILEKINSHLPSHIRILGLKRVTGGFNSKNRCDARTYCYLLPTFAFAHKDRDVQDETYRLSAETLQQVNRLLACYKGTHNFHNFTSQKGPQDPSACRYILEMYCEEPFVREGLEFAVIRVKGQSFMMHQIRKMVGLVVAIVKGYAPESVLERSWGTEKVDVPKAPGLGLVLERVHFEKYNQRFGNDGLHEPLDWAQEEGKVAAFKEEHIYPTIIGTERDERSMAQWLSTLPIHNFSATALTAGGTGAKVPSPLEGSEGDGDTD
UniProt Q9BVL2: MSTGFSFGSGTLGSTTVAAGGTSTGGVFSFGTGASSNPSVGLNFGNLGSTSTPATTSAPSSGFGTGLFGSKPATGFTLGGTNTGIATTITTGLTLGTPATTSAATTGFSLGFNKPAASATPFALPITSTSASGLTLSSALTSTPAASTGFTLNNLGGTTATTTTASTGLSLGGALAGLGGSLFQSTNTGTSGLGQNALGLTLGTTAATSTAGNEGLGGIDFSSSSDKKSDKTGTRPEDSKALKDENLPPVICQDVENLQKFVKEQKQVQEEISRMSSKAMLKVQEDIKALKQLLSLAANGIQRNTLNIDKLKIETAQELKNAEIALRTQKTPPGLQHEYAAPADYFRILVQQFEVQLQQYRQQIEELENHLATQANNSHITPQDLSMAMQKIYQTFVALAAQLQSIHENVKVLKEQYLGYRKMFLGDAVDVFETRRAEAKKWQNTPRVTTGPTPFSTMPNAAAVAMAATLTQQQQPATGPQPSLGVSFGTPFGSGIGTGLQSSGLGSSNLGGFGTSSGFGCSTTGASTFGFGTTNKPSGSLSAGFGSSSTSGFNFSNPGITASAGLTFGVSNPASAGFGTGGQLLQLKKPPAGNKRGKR
UniProt Q9BUK0: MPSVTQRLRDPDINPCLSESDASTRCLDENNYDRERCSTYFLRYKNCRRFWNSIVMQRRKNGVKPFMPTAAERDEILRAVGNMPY
UniProt Q8WWM7: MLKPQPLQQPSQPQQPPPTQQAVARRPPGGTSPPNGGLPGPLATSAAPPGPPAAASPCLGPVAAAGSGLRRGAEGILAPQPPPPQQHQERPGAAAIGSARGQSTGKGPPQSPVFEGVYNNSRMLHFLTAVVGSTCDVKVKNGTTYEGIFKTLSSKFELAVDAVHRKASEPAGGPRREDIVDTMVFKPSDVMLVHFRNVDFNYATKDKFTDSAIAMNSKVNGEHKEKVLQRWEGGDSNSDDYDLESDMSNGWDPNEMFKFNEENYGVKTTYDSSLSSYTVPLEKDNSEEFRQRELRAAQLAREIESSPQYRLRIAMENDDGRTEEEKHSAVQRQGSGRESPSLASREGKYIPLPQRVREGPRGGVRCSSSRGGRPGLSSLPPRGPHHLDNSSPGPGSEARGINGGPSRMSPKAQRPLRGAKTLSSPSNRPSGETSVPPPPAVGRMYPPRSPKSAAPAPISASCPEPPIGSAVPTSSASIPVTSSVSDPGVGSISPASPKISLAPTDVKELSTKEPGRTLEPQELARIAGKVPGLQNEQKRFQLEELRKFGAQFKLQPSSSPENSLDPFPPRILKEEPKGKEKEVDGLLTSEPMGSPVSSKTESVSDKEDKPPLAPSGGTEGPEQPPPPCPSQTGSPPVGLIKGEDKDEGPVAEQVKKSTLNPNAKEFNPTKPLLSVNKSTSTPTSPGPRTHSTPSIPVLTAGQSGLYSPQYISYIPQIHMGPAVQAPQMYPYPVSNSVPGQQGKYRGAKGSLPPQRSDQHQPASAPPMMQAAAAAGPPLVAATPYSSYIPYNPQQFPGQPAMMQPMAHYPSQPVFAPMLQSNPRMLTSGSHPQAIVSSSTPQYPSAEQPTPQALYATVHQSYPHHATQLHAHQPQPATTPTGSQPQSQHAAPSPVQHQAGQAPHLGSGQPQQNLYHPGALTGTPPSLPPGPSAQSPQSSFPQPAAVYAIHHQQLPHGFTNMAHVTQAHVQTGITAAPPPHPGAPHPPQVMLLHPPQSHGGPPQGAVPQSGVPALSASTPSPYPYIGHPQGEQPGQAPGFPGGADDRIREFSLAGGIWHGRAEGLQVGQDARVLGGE
UniProt Q5JPH6: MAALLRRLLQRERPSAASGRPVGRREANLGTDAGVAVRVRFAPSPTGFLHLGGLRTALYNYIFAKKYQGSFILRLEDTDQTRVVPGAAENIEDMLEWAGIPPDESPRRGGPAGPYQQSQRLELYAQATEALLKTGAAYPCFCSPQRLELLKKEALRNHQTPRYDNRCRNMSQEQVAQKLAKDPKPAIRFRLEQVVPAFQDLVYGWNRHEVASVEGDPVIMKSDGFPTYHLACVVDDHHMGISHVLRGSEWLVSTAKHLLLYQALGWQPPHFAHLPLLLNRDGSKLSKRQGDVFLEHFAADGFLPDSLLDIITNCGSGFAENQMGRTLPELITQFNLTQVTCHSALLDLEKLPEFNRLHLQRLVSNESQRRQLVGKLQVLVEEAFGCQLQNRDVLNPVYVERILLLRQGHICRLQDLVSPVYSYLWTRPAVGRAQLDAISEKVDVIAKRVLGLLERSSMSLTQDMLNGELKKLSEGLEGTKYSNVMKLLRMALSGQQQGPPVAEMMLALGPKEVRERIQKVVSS
UniProt Q92879: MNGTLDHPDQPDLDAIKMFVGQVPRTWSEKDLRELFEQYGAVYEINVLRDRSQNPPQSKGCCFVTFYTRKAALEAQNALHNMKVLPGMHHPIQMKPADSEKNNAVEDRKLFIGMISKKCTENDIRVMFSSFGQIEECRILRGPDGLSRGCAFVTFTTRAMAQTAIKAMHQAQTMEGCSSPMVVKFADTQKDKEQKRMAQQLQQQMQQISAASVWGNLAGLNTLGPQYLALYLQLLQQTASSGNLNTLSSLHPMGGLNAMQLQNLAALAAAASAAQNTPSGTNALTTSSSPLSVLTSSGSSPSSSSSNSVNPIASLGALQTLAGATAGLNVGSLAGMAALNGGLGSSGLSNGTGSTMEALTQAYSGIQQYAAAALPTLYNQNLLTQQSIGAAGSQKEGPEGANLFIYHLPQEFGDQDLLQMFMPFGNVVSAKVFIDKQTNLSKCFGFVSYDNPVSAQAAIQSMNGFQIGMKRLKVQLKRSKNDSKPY

Compound: Nc1ncnc2c1ncn2[C@@H]1O[C@H](COP(=O)(O)OP(=O)(O)NP(=O)(O)O)[C@@H](O)[C@H]1O [adenylyl imidodiphosphate]
Experiment: NP40-soluble protein abundance relative to vehicle (solubility fold change) (ratio); higher = more soluble protein in presence of AMP-PNP
Conditions: concentration: 0.1mM
Outline: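 Jurkat crude lysate (Dounce-homogenised) was treated with eight concentrations from 0.1 to 10 mM for 10 min at room temperature, then 3 min at 37 °C. It was solubilised with 0.8% NP40 and benzonase (60 min, 4 °C) and ultracentrifuged, and the supernatant was TMT-labelled for LC-MS/MS. Intensities were vsn-normalised, and the value is the fold change against the NP40-processed vehicle per replicate, from three independent experiments.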

| Target | NP40-soluble protein abundance |
| --- | --- |
| I3L2J8 and related entries (UniProt Q9UPN4) | 0.996 ± 0.031 |
| H7C5G1 and related entries (UniProt Q2TAA2) | 0.989 ± 0.014 |
| H0Y4T4 and related entries (UniProt Q5SW79) | 0.997 ± 0.058 |
| H0Y360 and related entries (UniProt Q01433) | 1.02 ± 0.017 |
| H0YKK6 and related entries (UniProt Q06323) | 0.951 ± 0.029 |
| H3BQM0 and related entries (UniProt Q8NDF8) | 0.979 ± 0.025 |
| H3BQ24 and related entries (UniProt Q9Y2M0) | 0.934 ± 0.047 |
| J3KNN5 and related entries (UniProt Q9UJV9) | 1.06 ± 0.026 |
| G3XAI2 and related entries (UniProt P07942) | 0.996 ± 0.021 |
| H7C5D9 and related entries (UniProt O75427) | 1 ± 0.09 |
| H3BPE7 and related entries (UniProt P35637) | 0.983 ± 0.033 |
| H0Y6E6 and related entries (UniProt Q92622) | 0.996 ± 0.014 |
| H0Y659 and related entries (UniProt Q7Z6Z7) | 1.01 ± 0.011 |
| G5E9L0 and related entries (UniProt Q8N6H7) | 0.994 ± 0.027 |
| J3KQ72 and related entries (UniProt Q9NRD1) | 0.9964 ± 0.0056 |
| G3XAI9 and related entries (UniProt Q5BKY9) | 0.996 ± 0.053 |
| G5EA36 and related entries (UniProt P30260) | 0.988 ± 0.056 |
| H0YIP2 and related entries (UniProt P49642) | 0.978 ± 0.017 |

Same assay, conditions: concentration: 0.5mM

| Target | NP40-soluble protein abundance |
| --- | --- |
| G8JLB3 and related entries (UniProt Q9Y606) | 0.982 ± 0.023 |
| J3QRS9 and related entries (UniProt O43670) | 1.03 ± 0.022 |
| H0YAR2 and related entries (UniProt P11940) | 1.02 ± 0.039 |
| H7BYF2 and related entries (UniProt Q9BVL2) | 1 ± 0.082 |
| J3KPV1 and related entries (UniProt Q9BUK0) | 0.9968 ± 0.0083 |
| H3BUF6 and related entries (UniProt Q8WWM7) | 1.01 ± 0.044 |
| J3KNP4 and related entries (UniProt Q9NPR2) | 0.985 ± 0.027 |
| J3KQL8 and related entries (UniProt Q9BQE5) | 0.956 ± 0.029 |
| H3BTB7 and related entries (UniProt Q5JPH6) | 0.985 ± 0.053 |
| H0YKX3 and related entries (UniProt Q15004) | 0.973 ± 0.016 |
| H0Y8P4 and related entries (UniProt Q8TED0) | 1.01 ± 0.014 |
| J3KR97 and related entries (UniProt Q9BTW9) | 1.02 ± 0.085 |
| J3KRD0 and related entries (UniProt Q86W34) | 0.984 ± 0.025 |
| G5EA30 and related entries (UniProt Q92879) | 1.05 ± 0.034 |
| H3BP28 and related entries (UniProt Q99807) | 0.992 ± 0.059 |
| UniProt I3L0E3 | 1.01 ± 0.075 |
| H1UBN3 and related entries (UniProt O95067+H1UBN3) | 0.99 ± 0.017 |
| H0YBI6 and related entries (UniProt Q86VQ6) | 0.99 ± 0.021 |
| H7C2Q8 and related entries (UniProt Q99848) | 0.996 ± 0.033 |

| Target | NP40-soluble protein abundance |
| --- | --- |
| I3L2J8 and related entries (UniProt Q9UPN4) | 0.981 ± 0.034 |
| H7C5G1 and related entries (UniProt Q2TAA2) | 1.01 ± 0.02 |
| H0Y4T4 and related entries (UniProt Q5SW79) | 0.99 ± 0.044 |
| H0Y360 and related entries (UniProt Q01433) | 1.008 ± 0.0054 |
| H0YKK6 and related entries (UniProt Q06323) | 1 ± 0.041 |
| H3BQM0 and related entries (UniProt Q8NDF8) | 0.97 ± 0.013 |
| H3BQ24 and related entries (UniProt Q9Y2M0) | 0.943 ± 0.18 |
| J3KNN5 and related entries (UniProt Q9UJV9) | 1.06 ± 0.027 |
| G3XAI2 and related entries (UniProt P07942) | 0.983 ± 0.024 |
| H7C5D9 and related entries (UniProt O75427) | 0.996 ± 0.085 |
| H3BPE7 and related entries (UniProt P35637) | 1.05 ± 0.07 |
| H0Y6E6 and related entries (UniProt Q92622) | 1.03 ± 0.057 |
| H0Y659 and related entries (UniProt Q7Z6Z7) | 1 ± 0.015 |
| G5E9L0 and related entries (UniProt Q8N6H7) | 0.988 ± 0.034 |
| J3KQ72 and related entries (UniProt Q9NRD1) | 0.9729 ± 0.0076 |
| G3XAI9 and related entries (UniProt Q5BKY9) | 1.01 ± 0.027 |
| G5EA36 and related entries (UniProt P30260) | 0.971 ± 0.041 |
| H0YIP2 and related entries (UniProt P49642) | 0.991 ± 0.012 |
